Experiment [1] has as its target T1, MLF2-SFB (stably expressed in U2OS) (UniProt Q15773).
T1 sequence: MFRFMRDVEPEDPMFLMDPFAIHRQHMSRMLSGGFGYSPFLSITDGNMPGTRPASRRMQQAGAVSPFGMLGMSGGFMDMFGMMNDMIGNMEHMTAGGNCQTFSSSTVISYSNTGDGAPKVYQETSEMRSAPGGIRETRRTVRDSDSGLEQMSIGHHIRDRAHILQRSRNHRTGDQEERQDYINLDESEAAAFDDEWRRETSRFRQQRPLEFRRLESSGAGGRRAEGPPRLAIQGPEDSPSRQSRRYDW
Description: affinity purification with mass spectrometry; tandem affinity purification (TAP-MS): U2OS cells stably expressing MLF2-SFB lysed in NETN buffer (100 mM NaCl, 20 mM Tris-Cl pH 8.0, 0.5 mM EDTA, 0.5% NP-40); streptavidin beads, biotin elution, S-protein beads; SDS-PAGE and MS.

The chains behind the UniProt entries cited, without tags or fusion partners. Residues count along the entry.
UniProt Q9UNE7: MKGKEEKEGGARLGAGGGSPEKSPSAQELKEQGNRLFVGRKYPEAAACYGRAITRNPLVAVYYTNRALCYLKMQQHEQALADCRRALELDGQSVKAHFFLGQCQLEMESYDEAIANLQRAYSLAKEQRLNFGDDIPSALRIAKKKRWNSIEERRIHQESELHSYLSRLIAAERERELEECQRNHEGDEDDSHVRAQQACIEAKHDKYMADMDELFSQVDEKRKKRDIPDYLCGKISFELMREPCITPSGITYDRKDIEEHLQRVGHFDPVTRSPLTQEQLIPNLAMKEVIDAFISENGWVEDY
UniProt P11021, residues 19-654: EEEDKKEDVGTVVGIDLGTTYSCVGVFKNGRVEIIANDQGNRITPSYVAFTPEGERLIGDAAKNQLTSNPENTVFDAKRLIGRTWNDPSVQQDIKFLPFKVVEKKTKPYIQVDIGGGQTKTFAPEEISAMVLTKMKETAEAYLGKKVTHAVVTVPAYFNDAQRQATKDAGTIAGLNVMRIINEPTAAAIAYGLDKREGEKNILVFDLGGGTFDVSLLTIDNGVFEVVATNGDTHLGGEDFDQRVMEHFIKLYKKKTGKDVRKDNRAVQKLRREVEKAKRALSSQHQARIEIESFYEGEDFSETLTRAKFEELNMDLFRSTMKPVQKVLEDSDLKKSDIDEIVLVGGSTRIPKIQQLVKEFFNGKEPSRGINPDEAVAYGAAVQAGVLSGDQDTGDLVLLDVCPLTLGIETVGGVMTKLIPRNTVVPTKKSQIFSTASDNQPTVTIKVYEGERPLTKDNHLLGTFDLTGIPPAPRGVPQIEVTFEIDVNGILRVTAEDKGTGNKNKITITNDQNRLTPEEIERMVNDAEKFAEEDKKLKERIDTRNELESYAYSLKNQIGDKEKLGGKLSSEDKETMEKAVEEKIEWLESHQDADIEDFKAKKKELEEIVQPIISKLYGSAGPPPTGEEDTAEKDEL

In experiment [2] the target is STUB1-SFB (stably expressed in HEK293T) (UniProt Q9UNE7). Description: affinity purification with mass spectrometry; HEK293T cells stably expressing STUB1-SFB lysed in NETN buffer (100 mM NaCl, 20 mM Tris-Cl pH 8.0, 0.5 mM EDTA, 0.5% NP-40); streptavidin beads overnight at 4°C, biotin elution, S-protein beads; SDS-PAGE and MS.

Our source for the binding values is publication PMC12520695.

No constants are given. Whether binding was seen depends on the method and setting. In cells and extracts the contact can be indirect. These calls come from enrichment with a bait or labelling near it, and not all partners need be listed.

For the molecule “STUB1, endogenous (from UniProt Q9UNE7 1-303) (enzyme)”, the binding entry in experiment [1] is reported as “binds”. For “binding immunoglobulin protein (BiP), endogenous (from UniProt P11021 19-654)”, in experiment [1], the binding entry was “binds”.

B1: myeloid leukemia factor 2 (MLF2), endogenous (protein, UniProt Q15773 1-248)
chain: MFRFMRDVEPEDPMFLMDPFAIHRQHMSRMLSGGFGYSPFLSITDGNMPGTRPASRRMQQAGAVSPFGMLGMSGGFMDMFGMMNDMIGNMEHMTAGGNCQTFSSSTVISYSNTGDGAPKVYQETSEMRSAPGGIRETRRTVRDSDSGLEQMSIGHHIRDRAHILQRSRNHRTGDQEERQDYINLDESEAAAFDDEWRRETSRFRQQRPLEFRRLESSGAGGRRAEGPPRLAIQGPEDSPSRQSRRYDW
Take B1: in experiment [2], the binding entry is listed as “binds”.

B2: CCDC38, endogenous (protein, UniProt Q502W7 1-563)
chain: MSSNLLPTLNSGGKVKDGSTKEDRPYKIFFRDLFLVKENEMAAKETEKFMNRNMKVYQKTTFSSRMKSHSYLSQLAFYPKRSGRSFEKFGPGPAPIPRLIEGSDTKRTVHEFINDQRDRFLLEYALSTKRNTIKKFEKDIAMRERQLKKAEKKLQDDALAFEEFLRENDQRSVDALKMAAQETINKLQMTAELKKASMEVQAVKSEIAKTEFLLREYMKYGFFLLQMSPKHWQIQQALKRAQASKSKANIILPKILAKLSLHSSNKEGILEESGRTAVLSEDASQGRDSQGKPSRSLTRTPEKKKSNLAESFGSEDSLEFLLDDEMDVDLEPALYFKEPEELLQVLRELEEQNLTLFQYSQDVDENLEEVNKREKVIQDKTNSNIEFLLEQEKMLKANCVREEEKAAELQLKSKLFSFGEFNSDAQEILIDSLSKKITQVYKVCIGDAEDDGLNPIQKLVKVESRLVELCDLIESIPKENVEAIERMKQKEWRQKFRDEKMKEKQRHQQERLKAALEKAVAQPKKKLGRRLVFHSKPPSGNKQQLPLVNETKTKSQEEEYFFT
On to B2, for which the binding result in experiment [2] is listed as “binds”.
